The list shows a part of the results. Most entries show no effect beyond the scatter of the controls.
compound: CN[C@@H]1C[C@H]2O[C@@](C)([C@@H]1OC)n1c3ccccc3c3c4c(c5c6ccccc6n2c5c31)C(=O)NC4 [staurosporine]; test: log2 fold change of tryptic peptide abundance, ligand vs vehicle (limited proteolysis) (log2 ratio); higher = more trypsin-susceptible (destabilized); settings: ligand concentration: 20 uM; sample: K562 cleared lysate; digestion: 4 min, 22 C (HT-PELSA RT4min, Orbitrap Astral)

Sequences of proteins named here, by UniProt entry; tags and fusion partners are left off. A change or cut given only in a name is not applied to a line headed by its entry.
UniProt Q96S90: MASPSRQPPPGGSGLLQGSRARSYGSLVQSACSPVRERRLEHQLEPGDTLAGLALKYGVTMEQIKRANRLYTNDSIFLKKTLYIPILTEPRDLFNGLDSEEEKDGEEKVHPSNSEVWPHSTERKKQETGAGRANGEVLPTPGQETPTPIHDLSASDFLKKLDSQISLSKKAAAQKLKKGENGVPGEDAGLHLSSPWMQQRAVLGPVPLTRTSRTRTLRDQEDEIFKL
UniProt Q96LT6: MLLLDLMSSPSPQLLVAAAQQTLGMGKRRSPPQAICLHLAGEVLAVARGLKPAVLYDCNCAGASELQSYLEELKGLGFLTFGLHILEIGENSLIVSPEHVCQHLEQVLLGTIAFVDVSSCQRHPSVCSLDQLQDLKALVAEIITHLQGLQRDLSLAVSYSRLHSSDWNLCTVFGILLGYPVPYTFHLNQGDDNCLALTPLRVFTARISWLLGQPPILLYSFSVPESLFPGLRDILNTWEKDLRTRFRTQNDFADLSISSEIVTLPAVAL
UniProt Q96SB3: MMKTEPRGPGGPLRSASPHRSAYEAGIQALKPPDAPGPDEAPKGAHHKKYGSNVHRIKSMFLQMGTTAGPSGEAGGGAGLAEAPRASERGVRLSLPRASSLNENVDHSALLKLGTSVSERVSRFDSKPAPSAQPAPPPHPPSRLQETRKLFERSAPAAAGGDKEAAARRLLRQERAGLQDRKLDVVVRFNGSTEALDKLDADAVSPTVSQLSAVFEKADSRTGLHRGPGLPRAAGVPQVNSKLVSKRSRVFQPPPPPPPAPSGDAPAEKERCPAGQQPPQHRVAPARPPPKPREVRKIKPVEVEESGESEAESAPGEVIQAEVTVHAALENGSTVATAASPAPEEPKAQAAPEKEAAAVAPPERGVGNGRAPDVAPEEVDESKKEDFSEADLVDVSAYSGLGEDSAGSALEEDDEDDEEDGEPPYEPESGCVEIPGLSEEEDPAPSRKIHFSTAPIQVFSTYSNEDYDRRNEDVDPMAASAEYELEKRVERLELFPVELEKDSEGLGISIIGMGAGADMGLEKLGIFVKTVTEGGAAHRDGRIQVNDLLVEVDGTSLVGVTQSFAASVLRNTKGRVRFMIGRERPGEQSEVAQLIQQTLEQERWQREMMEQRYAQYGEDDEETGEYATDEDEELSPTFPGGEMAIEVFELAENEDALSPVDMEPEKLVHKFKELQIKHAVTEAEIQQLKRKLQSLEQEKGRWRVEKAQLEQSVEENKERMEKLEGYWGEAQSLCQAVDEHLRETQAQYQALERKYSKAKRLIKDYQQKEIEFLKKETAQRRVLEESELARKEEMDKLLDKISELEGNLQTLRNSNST
UniProt Q96T66: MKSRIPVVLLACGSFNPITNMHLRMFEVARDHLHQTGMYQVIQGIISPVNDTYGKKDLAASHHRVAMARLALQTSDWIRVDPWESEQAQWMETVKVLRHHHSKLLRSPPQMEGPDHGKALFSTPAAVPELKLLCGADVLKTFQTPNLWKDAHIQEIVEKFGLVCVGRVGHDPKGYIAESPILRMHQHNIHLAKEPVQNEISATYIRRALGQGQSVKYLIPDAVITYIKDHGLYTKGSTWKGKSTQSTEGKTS
UniProt Q99418: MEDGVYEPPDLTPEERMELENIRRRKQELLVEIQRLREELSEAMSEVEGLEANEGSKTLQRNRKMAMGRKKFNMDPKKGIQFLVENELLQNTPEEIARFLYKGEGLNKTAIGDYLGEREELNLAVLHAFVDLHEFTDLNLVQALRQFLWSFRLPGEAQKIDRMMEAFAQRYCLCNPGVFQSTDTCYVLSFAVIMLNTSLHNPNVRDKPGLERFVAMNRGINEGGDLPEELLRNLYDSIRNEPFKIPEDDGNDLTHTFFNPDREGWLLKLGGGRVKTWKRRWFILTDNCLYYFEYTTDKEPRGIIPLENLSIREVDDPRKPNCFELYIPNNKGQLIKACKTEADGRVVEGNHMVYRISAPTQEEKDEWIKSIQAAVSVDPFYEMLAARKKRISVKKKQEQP
UniProt Q96SY0, whole entry: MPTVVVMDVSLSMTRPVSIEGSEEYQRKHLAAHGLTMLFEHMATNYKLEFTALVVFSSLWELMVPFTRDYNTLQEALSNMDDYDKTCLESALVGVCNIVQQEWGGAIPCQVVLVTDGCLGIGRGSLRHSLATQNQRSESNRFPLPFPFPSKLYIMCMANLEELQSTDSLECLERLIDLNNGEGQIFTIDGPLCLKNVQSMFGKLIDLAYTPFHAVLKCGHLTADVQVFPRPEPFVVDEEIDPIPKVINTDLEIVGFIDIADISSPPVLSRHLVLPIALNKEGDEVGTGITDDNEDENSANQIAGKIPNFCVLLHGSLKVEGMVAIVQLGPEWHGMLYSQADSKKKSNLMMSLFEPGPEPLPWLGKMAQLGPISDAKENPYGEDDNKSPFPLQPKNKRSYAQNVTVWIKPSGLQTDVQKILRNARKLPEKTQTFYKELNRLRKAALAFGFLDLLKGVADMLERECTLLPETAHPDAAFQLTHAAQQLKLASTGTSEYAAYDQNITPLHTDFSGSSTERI
UniProt Q96JG6: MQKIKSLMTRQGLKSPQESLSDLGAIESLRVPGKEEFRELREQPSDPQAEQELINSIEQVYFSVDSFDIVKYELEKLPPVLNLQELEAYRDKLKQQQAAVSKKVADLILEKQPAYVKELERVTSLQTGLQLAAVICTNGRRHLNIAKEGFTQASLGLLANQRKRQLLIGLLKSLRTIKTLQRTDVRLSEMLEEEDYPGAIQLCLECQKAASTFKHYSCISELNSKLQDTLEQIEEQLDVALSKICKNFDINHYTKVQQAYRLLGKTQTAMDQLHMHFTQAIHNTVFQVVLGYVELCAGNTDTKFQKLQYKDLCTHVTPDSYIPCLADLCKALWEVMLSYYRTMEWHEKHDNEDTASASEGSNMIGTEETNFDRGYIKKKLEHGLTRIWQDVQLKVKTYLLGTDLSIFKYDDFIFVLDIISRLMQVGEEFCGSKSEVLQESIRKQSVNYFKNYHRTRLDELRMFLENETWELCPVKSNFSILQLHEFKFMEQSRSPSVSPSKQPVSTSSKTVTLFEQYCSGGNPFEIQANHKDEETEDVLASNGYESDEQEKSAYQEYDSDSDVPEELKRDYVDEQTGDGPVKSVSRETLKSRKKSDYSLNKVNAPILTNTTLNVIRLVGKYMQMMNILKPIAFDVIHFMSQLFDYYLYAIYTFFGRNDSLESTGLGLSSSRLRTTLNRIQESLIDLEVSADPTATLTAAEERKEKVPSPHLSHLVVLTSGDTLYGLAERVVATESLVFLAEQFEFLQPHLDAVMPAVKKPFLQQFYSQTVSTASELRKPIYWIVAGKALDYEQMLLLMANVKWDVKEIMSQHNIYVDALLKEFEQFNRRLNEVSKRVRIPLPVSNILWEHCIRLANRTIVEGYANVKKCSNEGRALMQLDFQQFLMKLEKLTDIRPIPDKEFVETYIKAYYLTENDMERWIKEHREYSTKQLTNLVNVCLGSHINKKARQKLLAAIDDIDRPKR
UniProt Q96SF7: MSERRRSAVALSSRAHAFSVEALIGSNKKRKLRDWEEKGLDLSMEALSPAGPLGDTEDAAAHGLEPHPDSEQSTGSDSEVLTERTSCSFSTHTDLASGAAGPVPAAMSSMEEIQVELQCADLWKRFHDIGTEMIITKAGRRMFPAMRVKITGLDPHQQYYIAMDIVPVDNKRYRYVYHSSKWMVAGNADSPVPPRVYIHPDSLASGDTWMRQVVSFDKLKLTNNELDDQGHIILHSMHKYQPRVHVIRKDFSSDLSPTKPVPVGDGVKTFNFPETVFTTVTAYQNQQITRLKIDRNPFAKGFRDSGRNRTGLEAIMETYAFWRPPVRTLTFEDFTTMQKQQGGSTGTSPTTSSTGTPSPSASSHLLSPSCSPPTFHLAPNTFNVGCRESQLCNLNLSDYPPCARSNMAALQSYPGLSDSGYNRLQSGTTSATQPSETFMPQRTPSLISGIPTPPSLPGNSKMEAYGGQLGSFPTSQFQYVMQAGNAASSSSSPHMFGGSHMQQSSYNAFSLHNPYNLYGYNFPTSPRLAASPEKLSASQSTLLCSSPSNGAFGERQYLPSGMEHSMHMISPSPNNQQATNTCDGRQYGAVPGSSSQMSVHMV
UniProt Q96Q11: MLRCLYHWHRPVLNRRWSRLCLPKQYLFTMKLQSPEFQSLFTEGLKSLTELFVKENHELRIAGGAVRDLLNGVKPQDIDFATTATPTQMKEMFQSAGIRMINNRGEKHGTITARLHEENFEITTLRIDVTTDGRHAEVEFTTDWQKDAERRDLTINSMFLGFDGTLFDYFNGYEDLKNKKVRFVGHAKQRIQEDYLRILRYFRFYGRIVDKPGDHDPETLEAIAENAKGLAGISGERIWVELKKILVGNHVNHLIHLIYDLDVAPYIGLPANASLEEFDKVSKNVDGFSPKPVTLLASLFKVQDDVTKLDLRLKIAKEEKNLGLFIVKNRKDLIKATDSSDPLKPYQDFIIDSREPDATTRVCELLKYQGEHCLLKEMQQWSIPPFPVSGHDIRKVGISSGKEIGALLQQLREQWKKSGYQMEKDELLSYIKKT
UniProt Q99460, whole entry: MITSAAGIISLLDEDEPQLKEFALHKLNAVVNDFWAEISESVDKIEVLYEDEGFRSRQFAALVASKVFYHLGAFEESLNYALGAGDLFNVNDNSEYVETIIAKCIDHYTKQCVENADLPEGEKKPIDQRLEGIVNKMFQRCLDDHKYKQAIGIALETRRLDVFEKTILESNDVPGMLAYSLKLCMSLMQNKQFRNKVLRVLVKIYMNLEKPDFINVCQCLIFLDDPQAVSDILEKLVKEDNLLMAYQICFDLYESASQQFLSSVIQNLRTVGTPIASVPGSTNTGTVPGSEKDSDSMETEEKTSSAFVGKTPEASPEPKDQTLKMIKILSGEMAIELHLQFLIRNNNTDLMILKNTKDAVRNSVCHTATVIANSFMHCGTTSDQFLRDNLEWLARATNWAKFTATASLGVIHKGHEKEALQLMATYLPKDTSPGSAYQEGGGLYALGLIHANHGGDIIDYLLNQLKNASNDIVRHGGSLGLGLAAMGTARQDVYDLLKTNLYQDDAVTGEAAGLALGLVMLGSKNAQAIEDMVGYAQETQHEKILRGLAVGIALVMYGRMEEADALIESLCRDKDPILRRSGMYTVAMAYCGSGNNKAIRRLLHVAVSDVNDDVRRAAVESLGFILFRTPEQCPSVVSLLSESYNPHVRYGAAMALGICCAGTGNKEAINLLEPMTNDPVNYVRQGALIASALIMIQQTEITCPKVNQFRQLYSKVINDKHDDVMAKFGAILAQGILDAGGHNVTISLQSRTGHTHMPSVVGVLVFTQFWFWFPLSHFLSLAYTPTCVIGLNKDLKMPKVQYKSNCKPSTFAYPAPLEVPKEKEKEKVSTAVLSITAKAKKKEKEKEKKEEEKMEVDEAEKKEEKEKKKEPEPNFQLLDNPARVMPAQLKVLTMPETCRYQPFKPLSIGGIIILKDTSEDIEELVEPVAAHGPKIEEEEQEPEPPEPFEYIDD
UniProt Q96IY4: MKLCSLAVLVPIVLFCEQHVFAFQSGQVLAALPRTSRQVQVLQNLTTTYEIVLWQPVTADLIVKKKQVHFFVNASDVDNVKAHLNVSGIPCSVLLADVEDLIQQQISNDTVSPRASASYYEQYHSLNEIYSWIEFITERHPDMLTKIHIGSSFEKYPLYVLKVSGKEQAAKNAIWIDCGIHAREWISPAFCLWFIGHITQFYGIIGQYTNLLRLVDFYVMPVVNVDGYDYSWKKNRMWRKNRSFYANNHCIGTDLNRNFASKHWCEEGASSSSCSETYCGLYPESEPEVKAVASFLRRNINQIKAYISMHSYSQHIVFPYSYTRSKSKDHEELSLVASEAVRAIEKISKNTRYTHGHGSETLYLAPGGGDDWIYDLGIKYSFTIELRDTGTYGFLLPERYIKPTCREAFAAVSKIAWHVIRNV
UniProt Q96JJ3: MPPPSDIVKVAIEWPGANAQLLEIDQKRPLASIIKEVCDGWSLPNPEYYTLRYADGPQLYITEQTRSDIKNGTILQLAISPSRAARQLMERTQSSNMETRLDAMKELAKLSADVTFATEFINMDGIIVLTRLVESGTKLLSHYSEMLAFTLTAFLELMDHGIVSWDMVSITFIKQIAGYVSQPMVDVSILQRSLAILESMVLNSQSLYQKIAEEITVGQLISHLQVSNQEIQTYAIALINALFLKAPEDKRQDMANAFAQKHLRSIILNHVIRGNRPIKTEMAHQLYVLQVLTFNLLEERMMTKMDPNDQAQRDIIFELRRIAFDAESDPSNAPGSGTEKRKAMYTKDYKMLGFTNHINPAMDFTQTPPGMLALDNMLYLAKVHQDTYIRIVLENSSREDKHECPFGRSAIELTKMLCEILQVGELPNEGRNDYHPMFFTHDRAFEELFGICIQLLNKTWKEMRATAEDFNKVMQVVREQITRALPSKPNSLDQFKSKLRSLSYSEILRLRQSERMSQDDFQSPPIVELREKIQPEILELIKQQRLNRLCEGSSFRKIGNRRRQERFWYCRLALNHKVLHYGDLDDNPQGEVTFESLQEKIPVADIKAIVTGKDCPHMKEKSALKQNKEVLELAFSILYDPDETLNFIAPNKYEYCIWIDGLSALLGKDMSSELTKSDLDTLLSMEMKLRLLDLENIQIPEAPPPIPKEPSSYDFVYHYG

| Target | log2 fold change |
| --- | --- |
| ALKBH3 (peptide sequence: EFVFKEPQQVVR, peptide start residue: 53) (UniProt Q96Q83) | -0.11 |
| LYSMD1 (peptide sequence: KGENGVPGEDAGLHLSSPWMQQR, peptide start residue: 178) (UniProt Q96S90) | -0.387 |
| UniProt Q96LT6 (peptide sequence: ALVAEIITHLQGLQR, peptide start residue: 137) | 0.549 |
| PPP1R9B (peptide sequence: EIEFLKK, peptide start residue: 769) (UniProt Q96SB3) | -0.506 |
| NMNAT3 (peptide sequence: FGLVCVGR, peptide start residue: 160) (UniProt Q96T66) | -0.158 |
| CYTH2 (peptide sequence: RKQELLVEIQR, peptide start residue: 25) (UniProt Q99418) | 0.414 |
| UniProt Q96SY0 (peptide sequence: SESNRFPLPFPFPSK, peptide start residue: 137) | 0.66 |
| EHMT2 (peptide sequence: ADTSQPSAR, peptide start residue: 576) (UniProt Q96KQ7) | -0.189 |
| UniProt Q96JG6 (peptide sequence: IPLPVSNILWEHCIR, peptide start residue: 839) | 0.389 |
| ACAP3 (peptide sequence: EDLELSLVR, peptide start residue: 130) (UniProt Q96P50) | -0.363 |
| UniProt Q96SF7 (peptide sequence: TPSLISGIPTPPSLPGNSK, peptide start residue: 443) | 0.315 |
| PSMB7 (peptide sequence: NAVLEADFAKR, peptide start residue: 22) (UniProt Q99436) | 0.549 |
| SCLT1 (peptide sequence: ISTMEHEFSIK, peptide start residue: 545) (UniProt Q96NL6) | -0.332 |
| TRNT1 (peptide sequence: EMFQSAGIR, peptide start residue: 91) (UniProt Q96Q11) | 0.544 |
| UniProt Q96S19 (peptide sequence: VLEVASGSGQHAAHFAR, peptide start residue: 31) | 0.175 |
| PRMT6 (peptide sequence: YKVGDQEEK, peptide start residue: 359) (UniProt Q96LA8) | 0.754 |
| PSMD1 (peptide sequence: KKEPEPNFQLLDNPAR, peptide start residue: 868) (UniProt Q99460) | 0.48 |
| WRNIP1 (peptide sequence: KSGQSYSPSR, peptide start residue: 464) (UniProt Q96S55) | 0.849 |
| AHCYL2 (peptide sequence: SVQVVSAAAAAK, peptide start residue: 2) (UniProt Q96HN2) | -0.114 |
| COG3 (peptide sequence: EQSELVDLAENIQQK, peptide start residue: 182) (UniProt Q96JB2) | 0.646 |
| PNKP (peptide sequence: LGVPFQVLVATHAGLYR, peptide start residue: 243) (UniProt Q96T60) | 0.238 |
| NARS2 (peptide sequence: TNVLGSILR, peptide start residue: 149) (UniProt Q96I59) | 0.17 |
| NSD1 (peptide sequence: RNCGRSK, peptide start residue: 1019) (UniProt Q96L73) | 0.698 |
| UniProt Q96IY4 (peptide sequence: VSGKEQAAK, peptide start residue: 163) | -0.221 |
| SEC62 (peptide sequence: ENIKDEK, peptide start residue: 128) (UniProt Q99442) | 0.0579 |
| COG8 (peptide sequence: NSYYEEALELAAYVR, peptide start residue: 168) (UniProt Q96MW5) | 0.63 |
| ELMO2 (peptide sequence: ALPSKPNSLDQFK, peptide start residue: 484) (UniProt Q96JJ3) | -0.483 |
| NEK1 (peptide sequence: IVQNILGNEHQHLYAK, peptide start residue: 1226) (UniProt Q96PY6) | 0.91 |

Eight successive records out of the list so far, quoted:

| Target | log2 fold change |
| --- | --- |
| ALKBH3 (peptide sequence: EFVFKEPQQVVR, peptide start residue: 53) (UniProt Q96Q83) | -0.11 |
| LYSMD1 (peptide sequence: KGENGVPGEDAGLHLSSPWMQQR, peptide start residue: 178) (UniProt Q96S90) | -0.387 |
| UniProt Q96LT6 (peptide sequence: ALVAEIITHLQGLQR, peptide start residue: 137) | 0.549 |
| PPP1R9B (peptide sequence: EIEFLKK, peptide start residue: 769) (UniProt Q96SB3) | -0.506 |
| NMNAT3 (peptide sequence: FGLVCVGR, peptide start residue: 160) (UniProt Q96T66) | -0.158 |
| CYTH2 (peptide sequence: RKQELLVEIQR, peptide start residue: 25) (UniProt Q99418) | 0.414 |
| UniProt Q96SY0 (peptide sequence: SESNRFPLPFPFPSK, peptide start residue: 137) | 0.66 |
| EHMT2 (peptide sequence: ADTSQPSAR, peptide start residue: 576) (UniProt Q96KQ7) | -0.189 |
